Like-named read-outs stand apart in the source and are kept apart here. These are yes or no findings as the source states them, for the method shown. Binding seen in cells or lysates may run through a third protein. A yes stands for co-enrichment or nearness to the bait. Other partners may have been found. For some assays here: Where a sequence is shown, tags or fusion partners need not be part of it.
T1: CFP-1::GFP (C. elegans) (UniProt Q9XUE7)
T1 sequence: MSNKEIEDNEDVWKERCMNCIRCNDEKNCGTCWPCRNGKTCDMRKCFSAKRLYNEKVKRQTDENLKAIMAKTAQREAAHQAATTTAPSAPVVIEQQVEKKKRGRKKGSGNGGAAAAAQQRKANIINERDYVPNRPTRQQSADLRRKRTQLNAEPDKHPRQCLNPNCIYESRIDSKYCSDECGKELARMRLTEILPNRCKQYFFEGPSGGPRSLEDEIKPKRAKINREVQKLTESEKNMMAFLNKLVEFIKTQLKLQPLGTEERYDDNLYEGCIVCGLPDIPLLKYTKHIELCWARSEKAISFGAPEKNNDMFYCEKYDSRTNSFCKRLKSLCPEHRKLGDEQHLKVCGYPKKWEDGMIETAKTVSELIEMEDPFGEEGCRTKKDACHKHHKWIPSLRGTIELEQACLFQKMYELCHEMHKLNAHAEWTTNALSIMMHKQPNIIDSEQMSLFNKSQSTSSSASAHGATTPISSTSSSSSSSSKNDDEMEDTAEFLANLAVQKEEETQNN

The chains behind the UniProt entries cited, without tags or fusion partners. Where a name states a change or a piece, a line headed by the entry shows the natural chain unless it says otherwise.
UniProt Q17963: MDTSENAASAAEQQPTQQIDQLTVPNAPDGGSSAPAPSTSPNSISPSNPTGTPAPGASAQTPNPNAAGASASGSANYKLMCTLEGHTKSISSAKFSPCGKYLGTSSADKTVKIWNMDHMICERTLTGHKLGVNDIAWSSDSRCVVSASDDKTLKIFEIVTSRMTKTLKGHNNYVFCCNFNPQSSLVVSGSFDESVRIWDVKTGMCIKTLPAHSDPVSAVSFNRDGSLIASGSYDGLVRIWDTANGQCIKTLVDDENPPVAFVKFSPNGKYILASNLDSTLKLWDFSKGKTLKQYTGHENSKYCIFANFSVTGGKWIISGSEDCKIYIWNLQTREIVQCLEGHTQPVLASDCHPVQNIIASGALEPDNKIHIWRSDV
UniProt Q18221: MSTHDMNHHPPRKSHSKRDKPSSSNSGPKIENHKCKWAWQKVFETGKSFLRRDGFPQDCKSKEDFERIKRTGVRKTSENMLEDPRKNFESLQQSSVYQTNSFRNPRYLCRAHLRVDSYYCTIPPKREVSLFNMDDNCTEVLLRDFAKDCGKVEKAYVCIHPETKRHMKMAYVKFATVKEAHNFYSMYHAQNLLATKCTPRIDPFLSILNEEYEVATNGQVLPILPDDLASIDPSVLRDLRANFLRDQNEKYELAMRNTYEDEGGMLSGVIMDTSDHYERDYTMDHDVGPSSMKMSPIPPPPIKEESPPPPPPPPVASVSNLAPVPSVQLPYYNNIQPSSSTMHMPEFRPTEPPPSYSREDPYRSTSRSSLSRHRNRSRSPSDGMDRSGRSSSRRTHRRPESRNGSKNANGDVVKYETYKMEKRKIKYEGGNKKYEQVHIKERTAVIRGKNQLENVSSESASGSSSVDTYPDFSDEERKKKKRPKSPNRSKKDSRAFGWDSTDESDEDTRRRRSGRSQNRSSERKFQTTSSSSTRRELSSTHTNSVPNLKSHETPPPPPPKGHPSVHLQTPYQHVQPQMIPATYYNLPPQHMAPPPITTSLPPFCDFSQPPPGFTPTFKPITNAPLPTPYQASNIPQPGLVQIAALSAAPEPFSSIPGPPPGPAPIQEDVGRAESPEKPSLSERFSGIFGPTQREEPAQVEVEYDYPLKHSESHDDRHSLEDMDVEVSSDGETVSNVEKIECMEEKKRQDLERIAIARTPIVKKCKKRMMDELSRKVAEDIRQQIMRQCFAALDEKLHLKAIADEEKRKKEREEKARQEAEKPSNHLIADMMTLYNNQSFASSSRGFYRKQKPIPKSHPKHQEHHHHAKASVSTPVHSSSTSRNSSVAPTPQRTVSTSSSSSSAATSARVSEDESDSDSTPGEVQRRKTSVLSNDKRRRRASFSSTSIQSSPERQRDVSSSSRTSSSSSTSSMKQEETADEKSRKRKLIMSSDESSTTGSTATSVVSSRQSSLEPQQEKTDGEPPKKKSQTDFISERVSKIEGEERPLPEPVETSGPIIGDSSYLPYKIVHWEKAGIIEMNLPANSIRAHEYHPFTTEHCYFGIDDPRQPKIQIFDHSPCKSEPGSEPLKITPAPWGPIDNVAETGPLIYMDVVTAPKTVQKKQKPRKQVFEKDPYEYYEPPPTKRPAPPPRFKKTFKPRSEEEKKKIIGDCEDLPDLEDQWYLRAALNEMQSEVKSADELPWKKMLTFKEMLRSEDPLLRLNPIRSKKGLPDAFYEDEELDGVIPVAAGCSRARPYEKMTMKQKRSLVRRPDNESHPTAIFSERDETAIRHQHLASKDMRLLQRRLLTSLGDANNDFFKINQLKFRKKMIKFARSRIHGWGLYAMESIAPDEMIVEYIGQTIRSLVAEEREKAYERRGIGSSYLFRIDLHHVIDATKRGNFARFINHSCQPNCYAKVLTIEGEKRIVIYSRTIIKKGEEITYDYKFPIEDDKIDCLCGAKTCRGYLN
UniProt Q18605: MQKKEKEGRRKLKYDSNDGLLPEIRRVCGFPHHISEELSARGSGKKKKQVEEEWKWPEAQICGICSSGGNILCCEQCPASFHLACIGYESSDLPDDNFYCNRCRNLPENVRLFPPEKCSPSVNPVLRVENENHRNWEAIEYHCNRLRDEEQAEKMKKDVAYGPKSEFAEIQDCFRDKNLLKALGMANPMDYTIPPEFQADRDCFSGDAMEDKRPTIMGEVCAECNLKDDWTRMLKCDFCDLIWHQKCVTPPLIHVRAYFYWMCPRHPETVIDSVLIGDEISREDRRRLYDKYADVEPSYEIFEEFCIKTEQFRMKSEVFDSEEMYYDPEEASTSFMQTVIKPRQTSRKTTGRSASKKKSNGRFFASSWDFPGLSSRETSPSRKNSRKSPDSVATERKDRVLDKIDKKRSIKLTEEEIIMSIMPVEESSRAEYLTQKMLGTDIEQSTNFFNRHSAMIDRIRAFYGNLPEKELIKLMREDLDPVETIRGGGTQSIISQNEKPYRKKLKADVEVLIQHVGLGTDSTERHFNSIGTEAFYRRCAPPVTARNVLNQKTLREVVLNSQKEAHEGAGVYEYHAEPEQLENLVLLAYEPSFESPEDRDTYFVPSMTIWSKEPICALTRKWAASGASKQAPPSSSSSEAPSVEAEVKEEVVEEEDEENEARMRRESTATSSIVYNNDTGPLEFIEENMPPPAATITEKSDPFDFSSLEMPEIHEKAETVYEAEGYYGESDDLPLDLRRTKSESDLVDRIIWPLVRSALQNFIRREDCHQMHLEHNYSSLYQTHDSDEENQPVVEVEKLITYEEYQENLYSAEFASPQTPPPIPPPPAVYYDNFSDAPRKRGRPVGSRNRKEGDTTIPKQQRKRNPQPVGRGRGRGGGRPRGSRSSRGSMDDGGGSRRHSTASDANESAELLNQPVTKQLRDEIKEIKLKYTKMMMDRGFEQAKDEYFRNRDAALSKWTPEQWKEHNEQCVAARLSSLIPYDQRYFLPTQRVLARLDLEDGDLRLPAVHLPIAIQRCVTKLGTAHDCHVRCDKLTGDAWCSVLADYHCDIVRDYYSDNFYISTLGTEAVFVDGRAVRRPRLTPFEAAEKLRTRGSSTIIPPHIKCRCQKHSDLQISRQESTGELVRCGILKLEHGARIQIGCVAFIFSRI
UniProt O17695: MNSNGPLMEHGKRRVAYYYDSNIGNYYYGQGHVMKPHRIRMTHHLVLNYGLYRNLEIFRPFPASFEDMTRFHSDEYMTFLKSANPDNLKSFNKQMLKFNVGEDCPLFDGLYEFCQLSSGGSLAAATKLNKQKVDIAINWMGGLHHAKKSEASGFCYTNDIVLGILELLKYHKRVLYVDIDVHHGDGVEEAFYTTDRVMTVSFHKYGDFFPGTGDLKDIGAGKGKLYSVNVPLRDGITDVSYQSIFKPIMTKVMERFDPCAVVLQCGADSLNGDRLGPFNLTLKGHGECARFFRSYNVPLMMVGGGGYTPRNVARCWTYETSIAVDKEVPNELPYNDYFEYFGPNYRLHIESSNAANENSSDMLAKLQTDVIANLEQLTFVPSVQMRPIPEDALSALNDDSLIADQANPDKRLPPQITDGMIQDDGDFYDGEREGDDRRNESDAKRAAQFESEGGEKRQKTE
UniProt A5JYW9: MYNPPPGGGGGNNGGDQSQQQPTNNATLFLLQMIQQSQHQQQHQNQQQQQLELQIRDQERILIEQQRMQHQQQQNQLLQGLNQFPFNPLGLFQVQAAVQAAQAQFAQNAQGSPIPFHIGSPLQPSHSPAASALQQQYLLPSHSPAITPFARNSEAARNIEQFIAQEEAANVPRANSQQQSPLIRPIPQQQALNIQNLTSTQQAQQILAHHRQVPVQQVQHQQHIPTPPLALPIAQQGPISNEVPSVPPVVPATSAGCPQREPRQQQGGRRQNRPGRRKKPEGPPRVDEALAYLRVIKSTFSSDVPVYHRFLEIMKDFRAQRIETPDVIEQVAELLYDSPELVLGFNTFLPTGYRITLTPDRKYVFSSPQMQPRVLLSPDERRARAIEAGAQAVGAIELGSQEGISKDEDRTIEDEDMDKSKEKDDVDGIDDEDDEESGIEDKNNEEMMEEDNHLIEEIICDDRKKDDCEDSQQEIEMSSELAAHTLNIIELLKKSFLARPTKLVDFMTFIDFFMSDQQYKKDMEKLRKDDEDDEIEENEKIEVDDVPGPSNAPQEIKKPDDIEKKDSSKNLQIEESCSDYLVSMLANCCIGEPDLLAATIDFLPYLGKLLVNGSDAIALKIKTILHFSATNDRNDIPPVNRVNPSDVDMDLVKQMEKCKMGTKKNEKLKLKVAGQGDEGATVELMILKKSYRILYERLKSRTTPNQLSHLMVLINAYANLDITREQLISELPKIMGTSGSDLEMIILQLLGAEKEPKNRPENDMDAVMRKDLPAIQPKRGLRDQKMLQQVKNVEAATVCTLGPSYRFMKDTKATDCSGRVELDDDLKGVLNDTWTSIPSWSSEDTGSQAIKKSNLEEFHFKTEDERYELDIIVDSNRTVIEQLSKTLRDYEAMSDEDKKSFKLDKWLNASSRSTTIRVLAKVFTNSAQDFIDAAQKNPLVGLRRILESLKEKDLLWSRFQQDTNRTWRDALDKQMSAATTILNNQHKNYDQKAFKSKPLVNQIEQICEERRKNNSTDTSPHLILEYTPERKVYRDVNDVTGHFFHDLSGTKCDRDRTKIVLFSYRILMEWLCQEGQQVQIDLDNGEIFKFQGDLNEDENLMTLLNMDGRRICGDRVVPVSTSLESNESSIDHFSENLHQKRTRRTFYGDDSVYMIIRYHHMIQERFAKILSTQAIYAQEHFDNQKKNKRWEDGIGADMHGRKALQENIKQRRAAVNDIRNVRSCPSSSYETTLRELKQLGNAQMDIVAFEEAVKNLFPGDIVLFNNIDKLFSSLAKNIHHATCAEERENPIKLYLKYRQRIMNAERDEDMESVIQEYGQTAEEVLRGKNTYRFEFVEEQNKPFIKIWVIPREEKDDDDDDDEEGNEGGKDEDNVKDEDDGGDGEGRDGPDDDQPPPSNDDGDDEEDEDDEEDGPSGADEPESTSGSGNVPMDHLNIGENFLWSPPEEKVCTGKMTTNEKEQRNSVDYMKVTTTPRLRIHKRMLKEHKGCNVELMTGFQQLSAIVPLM


How the values were obtained:
CFP-1::GFP (C. elegans) = target: T1, CFP-1::GFP (C. elegans); experiment: affinity purification with mass spectrometry; CFP-1::GFP precipitated with GFP-TRAP MA beads from about 70 mg late stage embryo extract (strain PFR572); IP buffer with 300 mM KCl, benzonase; nanoLC-MS/MS; wild-type (N2) embryos as negative control
HA::WDR-5.1 (C. elegans) [1] = target: HA::WDR-5.1 (C. elegans) (UniProt Q17963); experiment: affinity purification with mass spectrometry; HA::WDR-5.1 precipitated with anti-HA affinity matrix from about 60 mg embryo extract (strain PFR506); IP buffer with 300 mM KCl, benzonase, HA peptide elution; nanoLC-MS/MS; wild-type (N2) embryos as negative control
HA::WDR-5.1 (C. elegans) [2] = target: HA::WDR-5.1 (C. elegans) (UniProt Q17963); experiment: as above; remark: listed apart in the source

Row | Molecule | binding (CFP-1::GFP (C. elegans)) | binding (HA::WDR-5.1 (C. elegans) [1]) | binding (HA::WDR-5.1 (C. elegans) [2])
1 | SET-2 (from UniProt Q18221 1-1507) | binds | binds | –
2 | ATHP-1 (AT Hook plus PHD finger transcription factor) (from UniProt Q18605) | binds | binds | –
3 | HDA-1 (from UniProt O17695 1-461) | binds | binds | –
4 | HCF-1 (protein, UniProt G5EC23 1-782) MDEDVGLEATNYSRGDESRSEEQEKNVVRWRIVQQSTGPNPKPRHGHRAVVLKELIVIFGGGNEGMIDELHAYNTQKREWTAPQCCGDVPTPAAAFGAISLGNKIYRFGGMTEYGKYTNDLYELQSTRWEWRRLNPRVHSNGHLPCPRIGHSFVVSQKSQKAYVFGGLSNDLNDPKRNVPHYLDDLYVINLSGPQHLIWEKLNATGPGPISRESHTAVIYEKDSISRMVVYGGMNGVRLGDLWYLNLNTLHWTEIKFDDPRTGIPPMPRSLHSSVLIGDKMFVYGGWVPLLEHASTEQQTEKEWKCTSSLGCWNITEDRWVPLHLYCSDEDTIPRGRAGHCAAAVGDRMYIWSGRDGYRKAWSNQVCCRDMWLLDTILPEQPGKVQLGRAGFNSLEISWPIVQGASGYFLQIGFGDAKEQSVSPIKRATTSPRKQPSIVPPSQKETEQSPKKPQGTAPSIISTQGTTYTAPADPKPATDEGGLPQDLFEDTEKNETASPKRSNDAQSADSSTCEQKKTDESGLEEDSEKDQKPSDAGETDEMKEENGDDDLPWFDVGIIDKATINVTHYFNDRQQSLEKQLNDLIDHNAFKCVNDSVFTTEDKIPLINGQSYRFRVSAINGLGKGAWSETASCKTCVPGYPSAPSSIRITKSHEGAQLTWEPPSNTNISGKIIEYSVYLAVKNQSANSADSQLAFMRVYCGPQADCQVLQSNLGTAFVDQTNKPAIIFRIAARNEKGYGPATQVRWLQDQQKIPVRTNYPNNSGFIYQQHGGQQKRARFDHQ | binds | – | binds
5 | ASH-2 (protein, UniProt G5EFZ3 1-570) MRSSKGGRGRQAAPKTAPTTVCYCDGKRELGSVEVVCSTCLKWFHGRCLKEFHELNSNGVPFMICYTFTCKQCRPTAEDWKAKKADLVQMCVTVLATLSAERLKADGKLSAEHVPEDFTYLSLKDEIVPYMNENWYMLTAIKQKKEWHQNLAPTLLKEKNIFVQHNDDDDLFALAEKNLSLLGPLHEAVKLIGKRPIERENREPRHIELPPIEGPKTRGASKRRHAEAPVTGKKQKLAADYSSTAAPNGVQIDIPFSKDNYRYYLTEVDPNVPEDPAWNQNQSSAYVIPSFHYRELLNPTVNVSSNDRAFQLSINGNSITGFEGYSMARASHGVSKGTWYFEVNFDDQPDDSHIRIGWSQSYASLQACVGYNKFSYGWRSKHGTKFHEAKGKKYHFGGFKQGDVLGCLIHLPVDKKLQIPANLPSEKYLPVSHKGFNLISFKANYFFEVQEESADIAKTLVEMPGSYIEFFHNGKSCGKAYENIYAGAYYPSISIFKSATATMNLGPKFRNLPRGATGIHARADEQQHEQTLSDMLYLVSKEVNLDHPPRVKREDDDDVKDIKKEIKQEI | binds | – | binds

The next lines start with the values.

Row | binding (CFP-1::GFP (C. elegans)) | binding (HA::WDR-5.1 (C. elegans) [1]) | binding (HA::WDR-5.1 (C. elegans) [2]) | Molecule
6 | binds | binds | – | SIN-3 (from UniProt A5JYW9 1-1507)
7 | binds | – | binds | MRG-1 (protein, UniProt A7DTF0 1-337) MSSKKNFEVGENVACIYKGKPYDAKITDIKTNSDGKELYCVHFKGWNNRYDEKIPVGEEKDRIFKGTASEYAEKHNAELPTTALKPKKKSLAAEAPRDDRDDTPGTSKGKKAKSVTIAPVMTADDMKVELPKPLRKILIDDYDLVCRYFINIVPHEYSVDQIIEDYIKTIPVSNEQMRTVDDLLIEYEEADIKITNLALICTARGLVDYFNVTLGSSYQLLYKFERPQYNDLVKKRAMEKGIDITNPTALQDSGFRPSQEYGIVHFLRMLAKLPDYLKLTQWNDHVINRIMIGVHDLIVFLNKNHGKYYRGSSDYQGASNDYYRRSLAADDGVGANQ

Reference: publication PMC6868398
